± gives the standard error. Many of these values have a large error.

The chains are these.
B1: glmS ribozyme (parent)
chain: AUAAAAGCGCCAGAACUACAGAAAUGUAGUUGACGAGGAGGAGGUUUAUCGAAUUUUCGGCGGAUGCCUCCAAA

Variants of B1 are the subject of one data set. Description: self-cleavage kobs at 2500 uM GlcN6P; higher = faster cleavage; RNA array. The settings on record: with glucosamine-6-phosphate. In outline: (§1)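 Glucosamine-6-phosphate, from 40 μM to 10 mM in HEPES/KCl/Mg(OAc)2 buffer, was flowed over sequenced MiSeq chips carrying barcoded ribozyme variants transcribed in situ by E. coli RNA polymerase. A hybridised Cy3 probe tracked the variants at 37 °C as tiles were imaged over ~14 h. kobs, kcat and KM were obtained by fitting normalised per-tile medians to exponential decays and then applying weighted Michaelis–Menten fits across concentrations.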
Take A14U C50A: the “self-cleavage kobs at 2500 uM GlcN6P” value was 2.4e-05 ± 1.6e-05 s⁻¹.
Take A64U C68A C71G: the “self-cleavage kobs at 2500 uM GlcN6P” value amounted to 3.3e-05 ± 3e-05 s⁻¹.
On the same count and under the same terms, the result for G32C A39U reads 1.48e-05 ± 1.1e-05 s⁻¹.
Consider U30G A48U U54A, for which the “self-cleavage kobs at 2500 uM GlcN6P” value worked out at 2.52e-05 ± 2.3e-05 s⁻¹.
As to G38U A64U C70G, the “self-cleavage kobs at 2500 uM GlcN6P” value turned out to be 4.9e-05 ± 2.9e-05 s⁻¹.
As for U56C U57G C58A, the “self-cleavage kobs at 2500 uM GlcN6P” value turned out to be 2.91e-05 ± 2.6e-05 s⁻¹.
The same measure, in the same setting: the result for U55G C68G U69C reads 4.39e-05 ± 2.5e-05 s⁻¹.
As for U57C C58G C70U, the “self-cleavage kobs at 2500 uM GlcN6P” value is 4.21e-05 ± 2.6e-05 s⁻¹.
For the variant G41A U46G C70U, the “self-cleavage kobs at 2500 uM GlcN6P” value stood at 0.00383 ± 0.0025 s⁻¹.
As to C19A A42G, the “self-cleavage kobs at 2500 uM GlcN6P” value turned out to be 0.0159 ± 0.012 s⁻¹.
With C16U A39G U55C, the “self-cleavage kobs at 2500 uM GlcN6P” value turned out to be 0.027 ± 0.015 s⁻¹.
As to C50U U56A C70U, the “self-cleavage kobs at 2500 uM GlcN6P” value is 4.19e-05 ± 2.6e-05 s⁻¹.
Regarding U47G U49G, the “self-cleavage kobs at 2500 uM GlcN6P” value is 0.000114 ± 5.9e-05 s⁻¹.
Take C16A C58U: the “self-cleavage kobs at 2500 uM GlcN6P” value is 2.1e-05 ± 2.1e-05 s⁻¹.
For the variant G29U C61A C70A, the “self-cleavage kobs at 2500 uM GlcN6P” value amounted to 2.82e-05 ± 2.5e-05 s⁻¹.
As to A39C U55G, the “self-cleavage kobs at 2500 uM GlcN6P” value was 0.0038 ± 0.0021 s⁻¹.
In the case of U31G G63U C71A, the “self-cleavage kobs at 2500 uM GlcN6P” value was 2.87e-05 ± 2.7e-05 s⁻¹.
Regarding U31C G59U C68A, the “self-cleavage kobs at 2500 uM GlcN6P” value was determined as 3.57e-05 ± 2.2e-05 s⁻¹.
For A53C U54G A64C, the “self-cleavage kobs at 2500 uM GlcN6P” value turned out to be 2.46e-05 ± 2.1e-05 s⁻¹.
With C50G A53U C68G, the “self-cleavage kobs at 2500 uM GlcN6P” value is 0.000261 ± 0.00013 s⁻¹.
Consider C61A C68U C71G, for which the “self-cleavage kobs at 2500 uM GlcN6P” value is 7.58e-05 ± 4.6e-05 s⁻¹.
Regarding A53U C58G C68U, the “self-cleavage kobs at 2500 uM GlcN6P” value is 2.57e-05 ± 1.5e-05 s⁻¹.
Take C16A C68A: the “self-cleavage kobs at 2500 uM GlcN6P” value was found to be 2.23e-05 ± 1.6e-05 s⁻¹.
Still for that read-out and setting: the result for A64C C70A reads 2.93e-05 ± 2.7e-05 s⁻¹.
With A15U U57G, the “self-cleavage kobs at 2500 uM GlcN6P” value was 3.29e-05 ± 2.4e-05 s⁻¹.
On to A48U G59C G66C C71A, for which the “self-cleavage kobs at 2500 uM GlcN6P” value was 2.6e-05 ± 2.6e-05 s⁻¹.
As for A39G U46G, the “self-cleavage kobs at 2500 uM GlcN6P” value is 0.00469 ± 0.0026 s⁻¹.
As to U31C A52G C68G U69A, the “self-cleavage kobs at 2500 uM GlcN6P” value turned out to be 5.46e-05 ± 3.4e-05 s⁻¹.
For U31G U47G A48G, the “self-cleavage kobs at 2500 uM GlcN6P” value was determined as 2.66e-05 ± 2e-05 s⁻¹.
As to C16G U45A C67G, the “self-cleavage kobs at 2500 uM GlcN6P” value is 3.82e-05 ± 2.2e-05 s⁻¹.
Take A53U U57C C68A: the “self-cleavage kobs at 2500 uM GlcN6P” value stood at 2.24e-05 ± 1.7e-05 s⁻¹.
Turning to U31A U47G A48G, the “self-cleavage kobs at 2500 uM GlcN6P” value turned out to be 2.13e-05 ± 1.5e-05 s⁻¹.
With U31C A42U, the “self-cleavage kobs at 2500 uM GlcN6P” value stood at 2.5e-05 ± 1.7e-05 s⁻¹.
Still for that read-out and setting: the result for G37C U47G C70G reads 3.19e-05 ± 1.9e-05 s⁻¹; that for C34G C58U A64C C67G, 3.03e-05 ± 2.2e-05 s⁻¹.
Still for that read-out and setting: the result for U30G A33U reads 4.34e-05 ± 2.3e-05 s⁻¹; that for U30G C50U C68G, 4.07e-05 ± 2.7e-05 s⁻¹.
Consider G62A G63C C70A C71U, for which the “self-cleavage kobs at 2500 uM GlcN6P” value amounted to 2.39e-05 ± 1.7e-05 s⁻¹.
With G44A A64G, the “self-cleavage kobs at 2500 uM GlcN6P” value was 1.67e-05 ± 1.6e-05 s⁻¹.
On the same count and under the same terms, the result for G44A U65G reads 2.79e-05 ± 1.9e-05 s⁻¹; that for A15G A42G, 0.0672 ± 0.06 s⁻¹; that for G37C C68U U69G, 3.29e-05 ± 2.6e-05 s⁻¹.
Still for that read-out and setting: the result for G29C G66U C68U reads 2.91e-05 ± 1.6e-05 s⁻¹; that for C16A G66U C68A, 4.29e-05 ± 3.2e-05 s⁻¹; that for U55C U69A, 3.47e-05 ± 2.3e-05 s⁻¹.
With A14U G66C C68U, the “self-cleavage kobs at 2500 uM GlcN6P” value is 3.95e-05 ± 2.3e-05 s⁻¹.
As to G66C C67U, the “self-cleavage kobs at 2500 uM GlcN6P” value came to 1.77e-05 ± 1.1e-05 s⁻¹.
Same read-out and setting: next, G44U C68U: 1.85e-05 ± 1.1e-05 s⁻¹.
In the case of G32U A39C U54A, the “self-cleavage kobs at 2500 uM GlcN6P” value amounted to 3.06e-05 ± 2.8e-05 s⁻¹.
For U57G C68A, the “self-cleavage kobs at 2500 uM GlcN6P” value was determined as 2.27e-05 ± 2.1e-05 s⁻¹.
In the case of A15U C67A C68A, the “self-cleavage kobs at 2500 uM GlcN6P” value came out at 2.77e-05 ± 2e-05 s⁻¹.
Regarding C58A C61G C68U, the “self-cleavage kobs at 2500 uM GlcN6P” value turned out to be 3.6e-05 ± 2.6e-05 s⁻¹.
Still for that read-out and setting: the result for G35A C50G G59C U65G reads 0.00046 ± 0.00039 s⁻¹.
As to U30A G32U U56C, the “self-cleavage kobs at 2500 uM GlcN6P” value is 2.96e-05 ± 2.2e-05 s⁻¹.
As for C50U G51U C68A C71A, the “self-cleavage kobs at 2500 uM GlcN6P” value is 3.37e-05 ± 2.2e-05 s⁻¹.
Consider A39C C67A C70U, for which the “self-cleavage kobs at 2500 uM GlcN6P” value is 3.65e-05 ± 1.8e-05 s⁻¹.
As to A39G G66U C68A, the “self-cleavage kobs at 2500 uM GlcN6P” value is 3.29e-05 ± 2.1e-05 s⁻¹.
Still for that read-out and setting: the result for A52C A64G reads 2.32e-05 ± 1.9e-05 s⁻¹; that for A48G C50G C61U, 4.61e-05 ± 3.5e-05 s⁻¹.
As to G40U A53C U65C G66A, the “self-cleavage kobs at 2500 uM GlcN6P” value was 2.77e-05 ± 2.5e-05 s⁻¹.
Consider U30C G37A C70G, for which the “self-cleavage kobs at 2500 uM GlcN6P” value worked out at 2.25e-05 ± 2.2e-05 s⁻¹.
As for C34U C61A C67G, the “self-cleavage kobs at 2500 uM GlcN6P” value is 2.26e-05 ± 2e-05 s⁻¹.
Still for that read-out and setting: next, A15U C16U C61G C70G: 2.95e-05 ± 2.8e-05 s⁻¹.
The same measure, in the same setting: the result for C16U A36U G37U C50U C71A reads 3.82e-05 ± 2.3e-05 s⁻¹.
Same read-out and setting: next, U47G G63U C68G: 3.48e-05 ± 2.7e-05 s⁻¹; C34U C50G A52G G60A: 3.29e-05 ± 3.2e-05 s⁻¹.
With U47A U57G C68U, the “self-cleavage kobs at 2500 uM GlcN6P” value stood at 2.47e-05 ± 2.4e-05 s⁻¹.
Consider A53C U56G U69A, for which the “self-cleavage kobs at 2500 uM GlcN6P” value is 5.02e-05 ± 2.6e-05 s⁻¹.
Turning to A14G U45A A48U, the “self-cleavage kobs at 2500 uM GlcN6P” value is 0.00158 ± 0.0008 s⁻¹.

The variants in the next data set derive from B1. Description: self-cleavage kobs at 10000 uM GlcN6P; higher = faster cleavage; RNA array. The settings on record: with glucosamine-6-phosphate. In outline:
as §1
C11A A14G A15G C70A: the “self-cleavage kobs at 10000 uM GlcN6P” value is 4.51e-05 ± 2.3e-05 s⁻¹.
In the case of C10G G66U C68G C71A, the “self-cleavage kobs at 10000 uM GlcN6P” value was determined as 2.58e-05 ± 1.9e-05 s⁻¹.
As to G7U A12G A33G U69A, the “self-cleavage kobs at 10000 uM GlcN6P” value is 3e-05 ± 2.2e-05 s⁻¹.
G9A U54G: the “self-cleavage kobs at 10000 uM GlcN6P” value was determined as 2.78e-05 ± 1.4e-05 s⁻¹.
In the case of G7U G9U C11G U31A C50A G51A C71G, the “self-cleavage kobs at 10000 uM GlcN6P” value worked out at 3.47e-05 ± 2.2e-05 s⁻¹.
For the variant C19A A42G, the “self-cleavage kobs at 10000 uM GlcN6P” value was found to be 0.00879 ± 0.0049 s⁻¹.
For C8A G29U C50U G51U C68G, the “self-cleavage kobs at 10000 uM GlcN6P” value amounted to 3.85e-05 ± 2e-05 s⁻¹.
On to C10A G59U C68A, for which the “self-cleavage kobs at 10000 uM GlcN6P” value came to 3.5e-05 ± 1.8e-05 s⁻¹.
A6G U54A C67G: the “self-cleavage kobs at 10000 uM GlcN6P” value stood at 2.97e-05 ± 2.4e-05 s⁻¹.
Turning to G7U C58A C67G C70U, the “self-cleavage kobs at 10000 uM GlcN6P” value amounted to 2.84e-05 ± 2.4e-05 s⁻¹.
As to C11A G13C A53U C58G A64U U69A, the “self-cleavage kobs at 10000 uM GlcN6P” value amounted to 4.36e-05 ± 2.4e-05 s⁻¹.
For C8A G37U A52G C70G, the “self-cleavage kobs at 10000 uM GlcN6P” value amounted to 3.52e-05 ± 2.4e-05 s⁻¹.
For U31C A42U, the “self-cleavage kobs at 10000 uM GlcN6P” value was determined as 1.4e-05 ± 8.3e-06 s⁻¹.
In the case of U30G A33U, the “self-cleavage kobs at 10000 uM GlcN6P” value was determined as 1.89e-05 ± 1.7e-05 s⁻¹.
On the same count and under the same terms, next, G44A U65G: 2.39e-05 ± 1.8e-05 s⁻¹; A6C C50G C61U: 4.16e-05 ± 2.4e-05 s⁻¹; A15G A42G: 0.0893 ± 0.049 s⁻¹.
In the case of U55C U69A, the “self-cleavage kobs at 10000 uM GlcN6P” value was determined as 1.47e-05 ± 1e-05 s⁻¹.
For the variant G32U A39C U54A, the “self-cleavage kobs at 10000 uM GlcN6P” value turned out to be 3.42e-05 ± 2e-05 s⁻¹.
On the same count and under the same terms, the result for A1U reads 0.0729 ± 0.056 s⁻¹.

For the origin of these results see the supplement of paper PMC7125110.
